PubChem BioAssay AID1159601 | NIAID – 2016
Shown is one part, drawn at random, of 756 deposited reagents. 143 of them (19%) count as active. 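Calls include both lowered and raised reporter signal; each row is a single siRNA, not a gene summary; Pam3CSK4 dose not stated.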 A number with no mark means an inactive call. The numbers tell different reagents against one gene apart. No sequences are given here. The record does not give: the amount of reagent.

- Screen: 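Which toll-like receptor pathway genes are needed for TNF promoter activation by Pam3CSK4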 (primary screen)
- Cell system: human THP-1 reporter cells differentiated with PMA into macrophage-like cells
- Knock-down reagent: single siRNA against human genes
- Time to read-out: ligand added 4 hours before read-out; cells assayed 48 to 72 hours after siRNA transfection
- Challenge: Pam3CSK4 (TLR2 ligand) for 4 hours; dose not given
- Measurement: 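TNF promoter dual-luciferase ratio measured 4 h after Pam3CSK4, converted to robust z-scores against negative controls and averaged across replicates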
- Direction: TNF reporter z-score: higher = stronger TNF promoter reporter activity
- Active means: 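Grade increases with absolute z-score, cut points 1, 1.5, 2 and 2.5, both signs; rows called active have z near or beyond ±1.5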
- Calls: active = clear change (up or down); inactive = little change

| Target gene | reagent | TNF reporter z-score, replicate mean |
| --- | --- | --- |
| MAPK14 (mitogen-activated protein kinase 14) | 1 | -2.66 (active) |
| MAPK14 (mitogen-activated protein kinase 14) | 2 | -2.23 (active) |
| MAPK14 (mitogen-activated protein kinase 14) | 3 | -1.97 (active) |
| MAPK14 (mitogen-activated protein kinase 14) | 4 | -1.32 |
| MAPK14 (mitogen-activated protein kinase 14) | 5 | -1.29 |
| MAPK14 (mitogen-activated protein kinase 14) | 6 | -1.92 (active) |
| MAPK3 (mitogen-activated protein kinase 3) | 1 | -1.09 |
| MAPK3 (mitogen-activated protein kinase 3) | 2 | -0.174 |
| MAPK3 (mitogen-activated protein kinase 3) | 3 | -1.64 (active) |
| MAPK3 (mitogen-activated protein kinase 3) | 4 | 0.274 |
| MAPK3 (mitogen-activated protein kinase 3) | 5 | -0.872 |
| MAPK3 (mitogen-activated protein kinase 3) | 6 | -1.94 (active) |
| MAPK8 (mitogen-activated protein kinase 8) | 1 | 0.88 |
| MAPK8 (mitogen-activated protein kinase 8) | 2 | -1.59 (active) |
| MAPK8 (mitogen-activated protein kinase 8) | 3 | 0.00213 |
| MAPK8 (mitogen-activated protein kinase 8) | 4 | -0.00488 |
| MAPK8 (mitogen-activated protein kinase 8) | 5 | -0.771 |
| MAPK8 (mitogen-activated protein kinase 8) | 6 | 0.439 |
| MAP2K4 (mitogen-activated protein kinase kinase 4) | 1 | -1.67 (active) |
| MAP2K4 (mitogen-activated protein kinase kinase 4) | 2 | -1.77 (active) |
| MAP2K4 (mitogen-activated protein kinase kinase 4) | 3 | -0.718 |
| MAP2K4 (mitogen-activated protein kinase kinase 4) | 4 | -0.225 |
| MAP2K4 (mitogen-activated protein kinase kinase 4) | 5 | 0.158 |
| MAP2K4 (mitogen-activated protein kinase kinase 4) | 6 | 0.127 |
| MAPK11 (mitogen-activated protein kinase 11) | 1 | -0.126 |
| MAPK11 (mitogen-activated protein kinase 11) | 2 | -0.662 |
| MAPK11 (mitogen-activated protein kinase 11) | 3 | -0.0964 |
| MAPK11 (mitogen-activated protein kinase 11) | 4 | 0.038 |
| MAPK11 (mitogen-activated protein kinase 11) | 5 | 1.28 |
| MAPK11 (mitogen-activated protein kinase 11) | 6 | 0.0131 |
| MAPK10 (mitogen-activated protein kinase 10) | 1 | 0.399 |
| MAPK10 (mitogen-activated protein kinase 10) | 2 | -0.541 |
| MAPK10 (mitogen-activated protein kinase 10) | 3 | -0.515 |
| MAPK10 (mitogen-activated protein kinase 10) | 4 | -0.349 |
| MAPK10 (mitogen-activated protein kinase 10) | 5 | 0.194 |
| MAPK10 (mitogen-activated protein kinase 10) | 6 | -0.429 |
| TRAF6 (TNF receptor associated factor 6) | 1 | -4.62 (active) |
| TRAF6 (TNF receptor associated factor 6) | 2 | -4.22 (active) |
| TRAF6 (TNF receptor associated factor 6) | 3 | -4.52 (active) |
| TRAF6 (TNF receptor associated factor 6) | 4 | -2.61 (active) |
| TRAF6 (TNF receptor associated factor 6) | 5 | -3.01 (active) |
| TRAF6 (TNF receptor associated factor 6) | 6 | -2.01 (active) |
| MAPK9 (mitogen-activated protein kinase 9) | 1 | 0.494 |
| MAPK9 (mitogen-activated protein kinase 9) | 2 | -1.29 |
| MAPK9 (mitogen-activated protein kinase 9) | 3 | -0.227 |
| MAPK9 (mitogen-activated protein kinase 9) | 4 | 0.655 |
| MAPK9 (mitogen-activated protein kinase 9) | 5 | -1.36 |
| MAPK9 (mitogen-activated protein kinase 9) | 6 | -0.246 |
| PIK3R5 (phosphoinositide-3-kinase regulatory subunit 5) | 1 | -0.862 |
| PIK3R5 (phosphoinositide-3-kinase regulatory subunit 5) | 2 | -0.751 |
| PIK3R5 (phosphoinositide-3-kinase regulatory subunit 5) | 3 | 0.894 |
| PIK3R5 (phosphoinositide-3-kinase regulatory subunit 5) | 4 | -0.853 |
| PIK3R5 (phosphoinositide-3-kinase regulatory subunit 5) | 5 | 0.571 |
| PIK3R5 (phosphoinositide-3-kinase regulatory subunit 5) | 6 | -1.06 |
| TLR8 (toll like receptor 8) | 1 | 0.416 |
| TLR8 (toll like receptor 8) | 2 | 1.15 |
| TLR8 (toll like receptor 8) | 3 | -0.776 |
| TLR8 (toll like receptor 8) | 4 | -1.68 (active) |
| TLR8 (toll like receptor 8) | 5 | 0.672 |
| TLR8 (toll like receptor 8) | 6 | -0.403 |
| MAP2K7 (mitogen-activated protein kinase kinase 7) | 1 | -0.4 |
| MAP2K7 (mitogen-activated protein kinase kinase 7) | 2 | -1.82 (active) |
| MAP2K7 (mitogen-activated protein kinase kinase 7) | 3 | -1.21 |
| MAP2K7 (mitogen-activated protein kinase kinase 7) | 4 | -0.609 |
| MAP2K7 (mitogen-activated protein kinase kinase 7) | 5 | -3.11 (active) |
| MAP2K7 (mitogen-activated protein kinase kinase 7) | 6 | -1.33 |
| ELK4 (ETS transcription factor ELK4) | 1 | -0.588 |
| ELK4 (ETS transcription factor ELK4) | 2 | -1 |
| ELK4 (ETS transcription factor ELK4) | 3 | -0.89 |
| ELK4 (ETS transcription factor ELK4) | 4 | -1.36 |
| ELK4 (ETS transcription factor ELK4) | 5 | -0.706 |
| ELK4 (ETS transcription factor ELK4) | 6 | -0.0703 |
| IRAK1 (interleukin 1 receptor associated kinase 1) | 1 | -0.96 |
| IRAK1 (interleukin 1 receptor associated kinase 1) | 2 | -2.99 (active) |
| IRAK1 (interleukin 1 receptor associated kinase 1) | 3 | -4.31 (active) |
| IRAK1 (interleukin 1 receptor associated kinase 1) | 4 | -1.42 |
| IRAK1 (interleukin 1 receptor associated kinase 1) | 5 | -2.57 (active) |
| IRAK1 (interleukin 1 receptor associated kinase 1) | 6 | -3.31 (active) |
| TBKBP1 (TBK1 binding protein 1) | 1 | 0.92 |
| TBKBP1 (TBK1 binding protein 1) | 2 | 0.949 |
| TBKBP1 (TBK1 binding protein 1) | 3 | -0.173 |
| TBKBP1 (TBK1 binding protein 1) | 4 | 0.307 |
| TBKBP1 (TBK1 binding protein 1) | 5 | 1.07 |
| TBKBP1 (TBK1 binding protein 1) | 6 | -0.266 |
| TNFAIP3 (TNF alpha induced protein 3) | 1 | -0.701 |
| TNFAIP3 (TNF alpha induced protein 3) | 2 | 0.76 |
| TNFAIP3 (TNF alpha induced protein 3) | 3 | -0.548 |
| TNFAIP3 (TNF alpha induced protein 3) | 4 | -0.808 |
| TNFAIP3 (TNF alpha induced protein 3) | 5 | -0.156 |
| TNFAIP3 (TNF alpha induced protein 3) | 6 | -1.64 (active) |
| SIGIRR (single Ig and TIR domain containing) | 1 | -0.182 |
| SIGIRR (single Ig and TIR domain containing) | 2 | -0.676 |
| SIGIRR (single Ig and TIR domain containing) | 3 | -0.889 |
| SIGIRR (single Ig and TIR domain containing) | 4 | -0.992 |
| SIGIRR (single Ig and TIR domain containing) | 5 | 1.03 |
| SIGIRR (single Ig and TIR domain containing) | 6 | -0.895 |
| RIPK3 (receptor interacting serine/threonine kinase 3) | 1 | -0.701 |
| RIPK3 (receptor interacting serine/threonine kinase 3) | 2 | -0.602 |
| RIPK3 (receptor interacting serine/threonine kinase 3) | 3 | 0.804 |
| RIPK3 (receptor interacting serine/threonine kinase 3) | 4 | -0.13 |
| RIPK3 (receptor interacting serine/threonine kinase 3) | 5 | -0.931 |
| RIPK3 (receptor interacting serine/threonine kinase 3) | 6 | -0.39 |
| TICAM1 (TIR domain containing adaptor molecule 1) | 1 | -0.479 |
| TICAM1 (TIR domain containing adaptor molecule 1) | 2 | 0.71 |
| TICAM1 (TIR domain containing adaptor molecule 1) | 3 | -0.166 |
| TICAM1 (TIR domain containing adaptor molecule 1) | 4 | -2.9 (active) |
| TICAM1 (TIR domain containing adaptor molecule 1) | 5 | -1.19 |
| TICAM1 (TIR domain containing adaptor molecule 1) | 6 | -0.597 |
| PIK3CG | 1 | -1.13 |
| PIK3CG | 2 | -0.426 |
| PIK3CG | 3 | -0.731 |
| PIK3CG | 4 | -0.346 |
| PIK3CG | 5 | 0.151 |
| PIK3CG | 6 | -1.76 (active) |

12 successive entries from above, quoted:
| Target gene | reagent | TNF reporter z-score, replicate mean |
| --- | --- | --- |
| MAP2K7 (mitogen-activated protein kinase kinase 7) | 4 | -0.609 |
| MAP2K7 (mitogen-activated protein kinase kinase 7) | 5 | -3.11 (active) |
| MAP2K7 (mitogen-activated protein kinase kinase 7) | 6 | -1.33 |
| ELK4 (ETS transcription factor ELK4) | 1 | -0.588 |
| ELK4 (ETS transcription factor ELK4) | 2 | -1 |
| ELK4 (ETS transcription factor ELK4) | 3 | -0.89 |
| ELK4 (ETS transcription factor ELK4) | 4 | -1.36 |
| ELK4 (ETS transcription factor ELK4) | 5 | -0.706 |
| ELK4 (ETS transcription factor ELK4) | 6 | -0.0703 |
| IRAK1 (interleukin 1 receptor associated kinase 1) | 1 | -0.96 |
| IRAK1 (interleukin 1 receptor associated kinase 1) | 2 | -2.99 (active) |
| IRAK1 (interleukin 1 receptor associated kinase 1) | 3 | -4.31 (active) |
